The assay deals with EMC1-Flag (Flag-tagged Drosophila EMC1, from UAS-EMC1-FLAG) (Drosophila melanogaster). Put plainly: affinity purification with mass spectrometry.

These are yes or no findings as the source states them, for the method shown. In cells and extracts the contact can be indirect. Here binding means that the protein was enriched with, or labelled near, the bait; the list need not be complete.

B1: Hippo (Hpo), endogenous in flies (enzyme, UniProt Q8T0S6 1-669)
chain: MSEPEVTSVVDMKSPNISSSCSFFKLKKLSEESLLQPPEKVFDIMYKLGEGSYGSVYKAVHKESSSIVAIKLVPVESDLHEIIKEISIMQQCDSPYVVRYYGSYFKQYDLWICMEYCGAGSVSDIMRLRKKTLTEDEIATILSDTLQGLVYLHLRRKIHRDIKAANILLNTEGYAKLADFGVAGQLTDTMAKRNTVIGTPFWMAPEVIEEIGYDCVADIWSLGITALEMAEGKPPYGEIHPMRAIFMIPQKPPPSFREPDRWSTEFIDFVSKCLVKEPDDRATATELLEHEFIRNAKHRSILKPMLEETCAIREQQRANRSFGGVLAASQAKSLATQENGMQQHITDNAFMEDPGTLVPEKFGEYQQSSASDATMIAHAEQGVDEGTLGPGGLRNLSKAAAPAAASSAASPLDMPAVDSGTMVELESNLGTMVINSDSDDSTTAKNNDDQKPRNRYRPQFLEHFDRKNAGDGRGDEKPIATEYSPAAAEQQQQQQQQQQQQQQDEQHLASGANDLNNWEHNMEMQFQQISAINQYGLQQHQQQQQVLMAYPLMNEQLIALNNQPNLLLSNAAPMGQQGIPAAAPAQPPPAYQNQHMHTQSHAYVEGEFEFLKFLTFDDLNQRLCNIDHEMELEIEQLNKKYNAKRQPIVDAMNAKRKRQQNINNNLIKI
In the case of B1, the binding entry is reported as “binds”.
